Patent US20080287669A1, “METHODS AND COMPOSITIONS FOR IDENTIFYING COMPOUNDS USEFUL IN NUCLEIC ACID PURIFICATION” (priority 2007, published 2008)
Where “and” joins values, the source holds several entries; their conditions need not be identical. Equal values may be shown once. Read-outs that look alike come from different tables or passages of the source.

Columns and labels:
[1] = tested on: RNA from Jurkat cell line; experiment: RNA isolation from Jurkat cells, Absolutely RNA Miniprep Kit protocol, solvent in binding buffer
[2] = tested on: RNA from Jurkat cell line; experiment: RNA isolation from Jurkat cells, glass fiber filter (NAP) protocol, solvent in binding buffer; yield/purity by A260 and A260/A280, quality by Agilent Bioanalyzer
[3] = tested on: RNA from white blood cells; experiment: RNA isolation from white blood cells, Stratagene Absolutely RNA kit (spin-cup protocol), solvent in binding buffer
[4] = tested on: RNA from white blood cells; experiment: RNA purification from white blood cells, NAP protocol, solvent in binding buffer
[5] = tested on: nucleic acid (RNA); experiment: Testing of solvents in Absolutely RNA Miniprep kit or NAP protocol (Jurkat cells or blood); details: standard conditions
[6] = 35% ethanol, NAP, Table 6, samples 1 and 2
[7] = 50% final concentration, NAP protocol, Table 9
[8] = 35% final concentration in binding buffer, Jurkat, Table 5, samples 1 and 2
[9] = 35% final concentration in binding buffer, Jurkat, Table 11
[10] = 35% final concentration in binding buffer, Jurkat, Table 12
[11] = 35% final concentration in binding buffer, Jurkat, Table 14
[12] = 35% in RNA binding buffer, Jurkat, Agilent Bioanalyzer, FIG. 12A/12D
[13] = 50% final concentration in binding buffer, Jurkat, Table 7
[14] = 50% final concentration in binding buffer, Jurkat, Table 8
[15] = 35% final concentration, white blood cells, Absolutely RNA Miniprep Kit, Table 13
[16] = 50% final concentration, white blood cells, spin cup protocol, Table 10
[17] = 10% final concentration in binding buffer, Jurkat, Table 14
[18] = 15% final concentration in binding buffer, Jurkat, Table 14
[19] = 20% final concentration in binding buffer, Jurkat, Table 14
[20] = 25% final concentration in binding buffer, Jurkat, Table 14
[21] = 30% final concentration in binding buffer, Jurkat, Table 14
[22] = 40% final concentration in binding buffer, Jurkat, Table 14
[23] = 45% final concentration in binding buffer, Jurkat, Table 14
[24] = 30% final concentration in binding buffer, Jurkat, Table 11
[25] = 40% final concentration in binding buffer, Jurkat, Table 11
[26] = 45% final concentration in binding buffer, Jurkat, Table 11
[27] = 25% final concentration in binding buffer, Jurkat, Table 12
[28] = 30% final concentration in binding buffer, Jurkat, Table 12
[29] = 40% final concentration in binding buffer, Jurkat, Table 12
[30] = 10% final concentration, white blood cells, Absolutely RNA Miniprep Kit, Table 13
[31] = 20% final concentration, white blood cells, Absolutely RNA Miniprep Kit, Table 13
[32] = 30% final concentration, white blood cells, Absolutely RNA Miniprep Kit, Table 13
[33] = 40% final concentration, white blood cells, Absolutely RNA Miniprep Kit, Table 13

SMILES: C1COCO1 [1,3-dioxolane]
- RIN number ([1]; in binding buffer, concentration not given, FIG. 13): 7.1

SMILES: CC(C)=O [acetone]
- A260/280 [2]: 2.06 and 2.04 and 1.32

SMILES: CC#N [acetonitrile]
- A260/280 [2]: 2.07 and 1.74 and 2.26 and 2 and 2.28
- RIN ratio [2]: 8.3
- A260/280 [3]: 1.8 and 1.78 and 1.67 and 1.84 and 1.73 and 1.68

SMILES: CCO [ethanol, reference compound]
- A260/280 [4, 6]: 2.04 and 2.24
- RNA [4, 6]: 12.26 ng/µL and 9.87 ng/µL
- RIN ([4]; 35%, Agilent Bioanalyzer, FIG. 2): 8.9
- A260/280 [4, 7]: 1.82
- RNA [4, 7]: 2.0 ng/µL
- A260/280 [2, 8]: 2.1 and 2.09
- RNA [2, 8]: 65.81 ng/µL and 67.3 ng/µL
- A260/280 [2, 9]: 2.15
- RNA [2, 9]: 75.95 ng/µL
- A260/280 [2, 10]: 2.05
- RNA [2, 10]: 31.8 ng/µL
- A260/280 [2, 11]: 2.1 and 2.09
- RNA [2, 11]: 65.81 ng/µL and 67.3 ng/µL
- RNA Integrity Number (RIN) [2, 12]: 7.9
- RIN ([2]; 35% in binding buffer, Jurkat, Agilent Bioanalyzer, FIG. 1): 7.9
- A260/280 [2, 13]: 2.03
- RNA [2, 13]: 54 ng/µL
- A260/280 [2, 14]: 2.03
- RNA [2, 14]: 54 ng/µL
- A260/280 [3, 15]: 2.02
- RNA [3, 15]: 36 ng/µL
- A260/280 [3, 16]: 1.21
- RNA [3, 16]: 8.06 ng/µL

SMILES: NC=O [formamide]
- yield of nucleic acid (RNA) [5]: did not yield nucleic acid (RNA)
- quantity of material isolated compared with other solvents ([1]; FIG. 14 Panel G): an order of magnitude lower

SMILES: O=S1(=O)CCCC1 [sulfolane]
- A260/280 [2, 17]: 1.82
- RNA [2, 17]: 3.72 ng/µL
- A260/280 [2, 18]: 2.13
- RNA [2, 18]: 4.55 ng/µL
- A260/280 [2, 19]: 1.77
- RNA [2, 19]: 4.63 ng/µL
- A260/280 [2, 20]: 1.94
- RNA [2, 20]: 7.42 ng/µL
- A260/280 [2, 21]: 2.02
- RNA [2, 21]: 27.81 ng/µL
- A260/280 [2, 11]: 2.09
- RNA [2, 11]: 63.8 ng/µL
- RNA Integrity Number (RIN) [2, 12]: 8.7
- A260/280 [2, 22]: 2.1
- RNA [2, 22]: 67.79 ng/µL
- RNA Integrity Number (RIN) ([2]; 40% in RNA binding buffer, Jurkat, Agilent Bioanalyzer, FIG. 12C): 8.4
- A260/280 [2, 23]: 2.08
- RNA [2, 23]: 70.49 ng/µL
- RNA Integrity Number (RIN) ([2]; 45% in RNA binding buffer, Jurkat, Agilent Bioanalyzer, FIG. 12B): 7.9

SMILES: COCCOCCOCCOCCOC [tetraglyme]
- A260/280 [2, 24]: 2.04
- RNA [2, 24]: 91.8 ng/µL
- RIN ratio ([2]; 30% in binding buffer, Jurkat, Agilent Bioanalyzer, FIG. 7): 6.8
- A260/280 [2, 9]: 2.02
- RNA [2, 9]: 58.69 ng/µL
- A260/280 [2, 25]: 2.05
- RNA [2, 25]: 65.44 ng/µL
- A260/280 [2, 26]: 2.06
- RNA [2, 26]: 59.87 ng/µL

SMILES: C1CCOC1 [tetrahydrofuran]
- A260/280 [2, 27]: 2.1
- RNA [2, 27]: 33.53 ng/µL
- A260/280 [2, 28]: 2.12
- RNA [2, 28]: 42.4 ng/µL
- RIN ratio ([2]; 30% in binding buffer, Jurkat, Agilent Bioanalyzer, FIG. 8B): 9.7
- A260/280 [2, 29]: 2.13
- RNA [2, 29]: 43.4 ng/µL
- A260/280 [3, 30]: 1.9
- RNA [3, 30]: 16 ng/µL
- A260/280 [3, 31]: 2.08
- RNA [3, 31]: 20 ng/µL
- A260/280 [3, 32]: 2.05
- RNA [3, 32]: 35 ng/µL
- RIN ratio ([3]; 30%, white blood cells, Agilent Bioanalyzer, FIG. 10B): 7.0
- A260/280 [3, 33]: 2.03
- RNA [3, 33]: 37.6 ng/µL

SMILES: O=C(O)C(Cl)(Cl)Cl [trichloroacetic acid]
- yield of nucleic acid (RNA) [5]: did not yield nucleic acid (RNA)
